Results published in article PMC10564934.
No constants are given. Whether binding was seen depends on the method and setting. In cells and extracts the contact can be indirect. Here binding means that the protein was enriched with, or labelled near, the bait; the list need not be complete. Where a sequence is shown, tags or fusion partners need not be part of it.

Chains of the proteins cited; added tags and fusions are not shown.
UniProt Q86TM6: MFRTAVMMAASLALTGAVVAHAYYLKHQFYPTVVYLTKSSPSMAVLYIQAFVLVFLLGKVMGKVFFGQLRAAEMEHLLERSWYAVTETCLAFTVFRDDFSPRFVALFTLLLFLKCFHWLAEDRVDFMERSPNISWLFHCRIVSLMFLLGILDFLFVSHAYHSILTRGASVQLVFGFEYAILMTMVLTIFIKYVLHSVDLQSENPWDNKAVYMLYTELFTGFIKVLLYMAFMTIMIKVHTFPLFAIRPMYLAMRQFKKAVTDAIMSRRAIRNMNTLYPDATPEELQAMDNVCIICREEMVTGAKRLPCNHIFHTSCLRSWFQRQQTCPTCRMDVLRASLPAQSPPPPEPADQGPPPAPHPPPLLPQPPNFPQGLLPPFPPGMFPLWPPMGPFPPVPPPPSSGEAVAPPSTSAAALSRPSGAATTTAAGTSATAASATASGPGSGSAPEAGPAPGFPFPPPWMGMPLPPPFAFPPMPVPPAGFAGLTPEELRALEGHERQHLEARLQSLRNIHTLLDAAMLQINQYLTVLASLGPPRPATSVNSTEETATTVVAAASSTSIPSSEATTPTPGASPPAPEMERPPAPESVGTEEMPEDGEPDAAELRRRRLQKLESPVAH

Target: T1, Flag-tagged MCT4 (monocarboxylate transporter 4), full length (UniProt O15427)
T1 sequence: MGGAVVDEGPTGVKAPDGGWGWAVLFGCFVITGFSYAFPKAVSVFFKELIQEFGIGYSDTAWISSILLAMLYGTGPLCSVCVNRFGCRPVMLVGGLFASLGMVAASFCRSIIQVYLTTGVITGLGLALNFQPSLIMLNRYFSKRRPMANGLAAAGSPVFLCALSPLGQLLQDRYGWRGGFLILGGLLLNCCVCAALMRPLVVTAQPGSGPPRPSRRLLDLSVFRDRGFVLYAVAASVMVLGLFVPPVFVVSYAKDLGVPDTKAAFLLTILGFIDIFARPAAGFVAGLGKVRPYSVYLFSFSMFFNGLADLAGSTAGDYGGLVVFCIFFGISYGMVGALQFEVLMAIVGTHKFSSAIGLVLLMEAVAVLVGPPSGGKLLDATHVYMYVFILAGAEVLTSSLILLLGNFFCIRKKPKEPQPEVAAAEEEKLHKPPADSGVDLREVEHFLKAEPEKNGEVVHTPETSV
Test: affinity purification with mass spectrometry; cellular extracts of Flag-MCT4-expressing HEK293T cells purified with anti-Flag affinity beads, eluted with Flag peptide, SDS-PAGE, silver stain, bands analysed by LC-MS/MS

binding: binds
Substance: SYVN1 (Synoviolin 1), endogenous (from UniProt Q86TM6 1-617) (enzyme)
